Results from US20090118331A1, “Use of Lobeline Epimers in the Treatment of Central Nervous System Diseases, Pathologies, and Drug Abuse” (priority 2007, published 2009).
Some results were stated once for a whole list of compounds, not compound by compound.

Experiment: Pharmacokinetics of lobeline and epimer after ascending and repeated doses (up to 60 mg) of sublingual lobeline in healthy volunteers
Settings: human volunteers, repeated sublingual lobeline, non-steady state
Description: Three consecutive doses of lobeline (either 30, 45 and 45 mg in the first study group, or 60, 60 and 60 mg in the second group) were administered to human volunteers at 0800, 1200 and 1600 over two full inpatient days. The pharmacokinetics of lobeline and epimer were then assessed in each subject. […] A crude index of accumulation (non-steady state) was obtained by dividing the sixth dose trough concentration by that observed for the fifth dose.

| Compound | crude index of accumulation (sixth dose trough concentration divided by that of the fifth dose) |
| --- | --- |
| CN1[C@H](CC(=O)c2ccccc2)CCC[C@H]1C[C@H](O)c1ccccc1 (single isomer, unassigned; epimer 2) [Epimer, 2-[6S-(2S-hydroxy-2-phenyl-ethyl)-1-methyl-piperidin-2S-yl]-1-phenyl-ethanone] | 1.2 to 1.3 |
| CN1[C@@H](CC(=O)c2ccccc2)CCC[C@H]1C[C@H](O)c1ccccc1 [Lobeline, 2-[6S-(2S-hydroxy-2-phenyl-ethyl)-1-methyl-piperidin-2R-yl]-1-phenyl-ethanone] | 1.2 to 1.3 |
